{"source": "PubChem BioAssay AID1159578 (Peter MacCallum Cancer Centre, 2015)", "purpose": "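Genome-wide hunt for genes controlling movement of lymphatic endothelial cells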 (primary screen)", "cells": "human lymphatic endothelial cells", "reagents": "siRNA pool against human genes, 40 nM", "duration": "48 h after transfection", "read-out": "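Cells stained with dye and imaged after a scratch; covered wound area and nuclei counted, duplicates averaged, migration set against mock wells and turned into a robust z-score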", "direction": "migration robust z-score: higher = faster migration into the scratch; nuclei per well: higher = more cells in the well", "call rule": "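Migration changed when robust z exceeds 2 or falls below -2 and mean nuclei number is at least 3300; otherwise not called changed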", "calls": "active = migration changed; inactive = no migration change, or too few cells", "note": "Shown is an unselected part of about 18,000 deposited reagents. In the full data, about 1,030 (5.7%) were called active. 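Inactive calls also include pools with fewer than 3300 nuclei, whose migration was not assessed.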 Raw values are not corrected between plates. Further read-outs or replicates are left out here. Reagent sequences are not shown."}
{"Target gene": "OR6K2", "migration robust z-score": 0.1, "nuclei per well, duplicate mean": 5812, "call": "inactive"}
{"Target gene": "CDKN1B", "migration robust z-score": -0.02, "nuclei per well, duplicate mean": 5720, "call": "inactive"}
{"Target gene": "PIK3R6", "migration robust z-score": 1.31, "nuclei per well, duplicate mean": 5876, "call": "inactive"}
{"Target gene": "SGTB", "migration robust z-score": 0.88, "nuclei per well, duplicate mean": 7140, "call": "inactive"}
{"Target gene": "PPM1H", "migration robust z-score": 0.42, "nuclei per well, duplicate mean": 6481, "call": "inactive"}
{"Target gene": "MEDAG", "migration robust z-score": -0.18, "nuclei per well, duplicate mean": 5428, "call": "inactive"}
{"Target gene": "NELFCD", "migration robust z-score": -1.61, "nuclei per well, duplicate mean": 3024, "call": "inactive"}
{"Target gene": "PLA2G1B", "migration robust z-score": -1.27, "nuclei per well, duplicate mean": 4295, "call": "inactive"}
{"Target gene": "LIPC", "migration robust z-score": -0.02, "nuclei per well, duplicate mean": 5028, "call": "inactive"}
{"Target gene": "RNF125", "migration robust z-score": 0.6, "nuclei per well, duplicate mean": 5842, "call": "inactive"}
{"Target gene": "SLC22A16", "migration robust z-score": 0.72, "nuclei per well, duplicate mean": 5746, "call": "inactive"}
{"Target gene": "C7", "migration robust z-score": -0.64, "nuclei per well, duplicate mean": 5002, "call": "inactive"}
{"Target gene": "CEL", "migration robust z-score": 0.55, "nuclei per well, duplicate mean": 6196, "call": "inactive"}

Already shown: entries from further up.
{"Target gene": "RNF125", "migration robust z-score": 0.6, "nuclei per well, duplicate mean": 5842, "call": "inactive"}
{"Target gene": "SLC22A16", "migration robust z-score": 0.72, "nuclei per well, duplicate mean": 5746, "call": "inactive"}

Additional entries follow:
{"Target gene": "GLUD2", "migration robust z-score": -0.28, "nuclei per well, duplicate mean": 5866, "call": "inactive"}
{"Target gene": "MYO7B", "migration robust z-score": 0.39, "nuclei per well, duplicate mean": 7248, "call": "inactive"}
{"Target gene": "PRAC1", "migration robust z-score": 0.38, "nuclei per well, duplicate mean": 5520, "call": "inactive"}
{"Target gene": "TSSK1B", "migration robust z-score": 0.16, "nuclei per well, duplicate mean": 4558, "call": "inactive"}
{"Target gene": "BRI3", "migration robust z-score": -0.26, "nuclei per well, duplicate mean": 6146, "call": "inactive"}
{"Target gene": "UBALD2", "migration robust z-score": -0.69, "nuclei per well, duplicate mean": 6051, "call": "inactive"}
{"Target gene": "MRI1", "migration robust z-score": -1.19, "nuclei per well, duplicate mean": 3404, "call": "inactive"}
{"Target gene": "ZFP36L2", "migration robust z-score": -0.92, "nuclei per well, duplicate mean": 5226, "call": "inactive"}
{"Target gene": "TNFSF12-TNFSF13", "migration robust z-score": 0.67, "nuclei per well, duplicate mean": 5702, "call": "inactive"}
{"Target gene": "LRRC10", "migration robust z-score": 0.5, "nuclei per well, duplicate mean": 5398, "call": "inactive"}
{"Target gene": "AP3S1", "migration robust z-score": 0.3, "nuclei per well, duplicate mean": 5704, "call": "inactive"}
{"Target gene": "TCP1", "migration robust z-score": -0.05, "nuclei per well, duplicate mean": 5971, "call": "inactive"}
{"Target gene": "SLC7A1", "migration robust z-score": 0.18, "nuclei per well, duplicate mean": 5168, "call": "inactive"}
{"Target gene": "TRIM63", "migration robust z-score": -0.28, "nuclei per well, duplicate mean": 5336, "call": "inactive"}
